Experimental data as given in US6387643.
No constants are given. Whether binding was seen depends on the method and setting. In cells and extracts the contact can be indirect. Some binding calls cover weakened binding; strength is not graded here.

Target: T1, 56 kDa polypeptide of human platelet heparanase (human) (UniProt Q9Y251)
T1 sequence: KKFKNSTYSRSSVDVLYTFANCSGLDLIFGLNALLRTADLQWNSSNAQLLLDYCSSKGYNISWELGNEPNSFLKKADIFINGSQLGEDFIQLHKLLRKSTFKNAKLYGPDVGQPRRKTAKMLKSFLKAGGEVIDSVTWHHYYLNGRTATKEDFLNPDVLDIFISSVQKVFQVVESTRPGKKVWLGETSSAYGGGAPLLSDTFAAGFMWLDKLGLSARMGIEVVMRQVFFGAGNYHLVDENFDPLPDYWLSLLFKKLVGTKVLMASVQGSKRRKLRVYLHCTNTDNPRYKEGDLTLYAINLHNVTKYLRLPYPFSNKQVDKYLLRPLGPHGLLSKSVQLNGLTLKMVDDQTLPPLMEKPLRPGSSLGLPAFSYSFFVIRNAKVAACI
Experiment: gel filtration in non-denaturing solvents; co-purification

- binding: binds
B1: 8 kDa polypeptide of human platelet heparanase (enzyme)
chain: QDVVDLDFFTQEPLHLVSPSFLSVTIDANLATDPRFLILLGSPKLRTLARGLSPAYLRFGGTKTDFLIFDPKKE
modifications: N-terminal Gln23 cyclized to pyrrolidonecarboxylic acid (PCA)
